## Primary screen of a compound library

Amino acid sequences for entries named in this document (tags omitted). Residues count along the entry.
UniProt I6X8D2, whole entry: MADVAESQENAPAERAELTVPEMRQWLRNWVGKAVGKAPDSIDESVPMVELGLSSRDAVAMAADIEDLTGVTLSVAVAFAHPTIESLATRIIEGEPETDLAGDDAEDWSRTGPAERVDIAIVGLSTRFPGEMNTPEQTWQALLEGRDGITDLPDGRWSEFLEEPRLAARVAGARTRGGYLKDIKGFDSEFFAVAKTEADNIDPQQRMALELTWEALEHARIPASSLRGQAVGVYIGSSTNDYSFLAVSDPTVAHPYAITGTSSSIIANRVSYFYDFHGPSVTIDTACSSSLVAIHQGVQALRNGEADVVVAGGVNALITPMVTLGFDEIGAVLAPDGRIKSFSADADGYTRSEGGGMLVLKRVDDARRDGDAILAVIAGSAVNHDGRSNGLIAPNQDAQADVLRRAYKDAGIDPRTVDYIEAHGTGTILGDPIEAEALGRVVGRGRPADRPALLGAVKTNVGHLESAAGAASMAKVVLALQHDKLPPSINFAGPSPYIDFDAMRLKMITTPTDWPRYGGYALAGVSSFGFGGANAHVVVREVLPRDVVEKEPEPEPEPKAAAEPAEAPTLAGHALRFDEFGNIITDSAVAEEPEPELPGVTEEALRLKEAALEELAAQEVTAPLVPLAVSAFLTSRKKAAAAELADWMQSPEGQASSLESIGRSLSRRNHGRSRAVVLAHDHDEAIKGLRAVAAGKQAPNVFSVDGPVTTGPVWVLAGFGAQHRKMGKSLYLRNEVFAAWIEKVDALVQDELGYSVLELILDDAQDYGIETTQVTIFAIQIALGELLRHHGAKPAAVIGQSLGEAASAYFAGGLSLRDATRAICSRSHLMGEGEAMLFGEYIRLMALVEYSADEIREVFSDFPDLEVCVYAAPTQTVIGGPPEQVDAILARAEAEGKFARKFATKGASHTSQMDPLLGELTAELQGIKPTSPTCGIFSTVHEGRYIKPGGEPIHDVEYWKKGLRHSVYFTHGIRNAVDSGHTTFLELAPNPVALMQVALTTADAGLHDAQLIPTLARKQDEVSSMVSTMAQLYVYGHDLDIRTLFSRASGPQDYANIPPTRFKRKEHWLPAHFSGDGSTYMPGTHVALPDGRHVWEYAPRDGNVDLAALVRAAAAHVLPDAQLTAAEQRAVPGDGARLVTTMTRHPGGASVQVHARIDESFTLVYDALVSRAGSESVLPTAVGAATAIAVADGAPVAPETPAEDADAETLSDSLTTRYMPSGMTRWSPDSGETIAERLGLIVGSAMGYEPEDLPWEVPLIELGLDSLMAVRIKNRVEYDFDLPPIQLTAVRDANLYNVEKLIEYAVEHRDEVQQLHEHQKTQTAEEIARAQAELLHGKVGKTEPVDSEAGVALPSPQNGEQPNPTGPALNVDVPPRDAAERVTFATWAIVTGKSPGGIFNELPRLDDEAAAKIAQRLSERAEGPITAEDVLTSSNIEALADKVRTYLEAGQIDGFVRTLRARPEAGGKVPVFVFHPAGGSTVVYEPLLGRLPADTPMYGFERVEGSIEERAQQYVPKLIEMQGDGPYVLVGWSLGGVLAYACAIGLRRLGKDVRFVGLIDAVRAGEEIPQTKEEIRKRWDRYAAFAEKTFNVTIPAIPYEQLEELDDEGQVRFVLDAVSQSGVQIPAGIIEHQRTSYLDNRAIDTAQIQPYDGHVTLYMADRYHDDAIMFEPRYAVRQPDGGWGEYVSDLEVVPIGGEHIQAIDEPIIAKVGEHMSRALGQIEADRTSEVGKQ
UniProt Q4DA54, 1-478: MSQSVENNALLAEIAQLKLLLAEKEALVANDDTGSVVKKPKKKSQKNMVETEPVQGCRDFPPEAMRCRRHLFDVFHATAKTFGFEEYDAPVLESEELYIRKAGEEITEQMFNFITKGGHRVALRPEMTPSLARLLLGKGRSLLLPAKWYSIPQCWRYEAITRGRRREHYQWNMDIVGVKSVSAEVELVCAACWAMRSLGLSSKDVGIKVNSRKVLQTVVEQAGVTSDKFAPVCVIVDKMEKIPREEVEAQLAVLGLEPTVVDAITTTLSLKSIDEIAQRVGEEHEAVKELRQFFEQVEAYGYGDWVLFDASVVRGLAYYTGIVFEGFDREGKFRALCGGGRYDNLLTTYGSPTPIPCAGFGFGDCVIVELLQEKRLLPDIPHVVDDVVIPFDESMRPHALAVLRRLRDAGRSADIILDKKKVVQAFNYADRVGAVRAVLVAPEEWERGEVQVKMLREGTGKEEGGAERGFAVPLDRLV
UniProt A4I591, 1-473: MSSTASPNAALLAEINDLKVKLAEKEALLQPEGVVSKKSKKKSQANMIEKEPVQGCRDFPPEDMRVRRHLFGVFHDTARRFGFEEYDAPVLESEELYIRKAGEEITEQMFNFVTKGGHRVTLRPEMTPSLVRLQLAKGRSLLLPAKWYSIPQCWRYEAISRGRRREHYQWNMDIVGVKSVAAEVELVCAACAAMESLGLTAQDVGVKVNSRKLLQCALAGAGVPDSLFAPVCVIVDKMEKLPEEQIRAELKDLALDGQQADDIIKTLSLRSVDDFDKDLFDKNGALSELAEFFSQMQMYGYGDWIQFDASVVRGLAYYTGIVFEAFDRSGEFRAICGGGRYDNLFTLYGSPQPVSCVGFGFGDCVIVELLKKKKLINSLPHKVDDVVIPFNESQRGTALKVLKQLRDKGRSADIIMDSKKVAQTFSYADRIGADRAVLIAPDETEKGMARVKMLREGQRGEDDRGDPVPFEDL

Source: ChEMBL document CHEMBL3988442, “University of Dundee, Small-Polar-MMV Screening Library” (2021).

Pks13 thioesterase: 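Enzyme assay of the thioesterase domain of polyketide synthase 13; the read-out is not stated. Target: Polyketide synthase Pks13, Mycobacterium tuberculosis (UniProt I6X8D2). Concentration: 30 µM. Higher reads as stronger inhibition (inferred from which compounds were picked for retests). About 67,000 compounds were tested under these conditions; 0.46% (about 300) showed 50% or more at least once.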
TcHisRS: 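Enzyme assay of histidyl-tRNA synthetase; the read-out is not stated. Target: Histidine-tRNA ligase, Trypanosoma cruzi CL Brener (UniProt Q4DA54). Tested at 30 µM. Direction is inferred from retests: higher values go with stronger inhibition. Of about 69,000 compounds tested this way, about 31 (0.045%) reached 50% or more in at least one test.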
LiHisRS: 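Histidine-tRNA ligase, Leishmania infantum (UniProt A4I591). Enzyme assay of histidyl-tRNA synthetase; the read-out is not stated. Tested at 30 µM. The record gives no direction; compounds that gave an IC50 in retests scored well above the rest, so higher reads as stronger inhibition. The assay is labelled LdHisRS but filed under L. infantum. Of about 69,000 compounds tested this way, about 410 (0.6%) reached 50% or more in at least one test.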

Values are the deposited “Percent Effect”, in %.
How 0% and 100% were set is not recorded. Most values in the screen are low, and negative values occur.
Compounds were drawn at random from those tested, without regard to their results.

{"compound": "COc1ccccc1C(O)CNC(=O)Nc1cccnc1OC", "stereo": "stereo not given", "Pks13 thioesterase": -7.404, "TcHisRS": 8, "LiHisRS": 11.86}
{"compound": "CC(=O)Nc1ccc(CNC2CCCSC2)cc1", "stereo": "stereo not given", "Pks13 thioesterase": 24.38, "TcHisRS": 4.459, "LiHisRS": -15.49}
{"compound": "CN(C(=O)c1ccc[nH]1)C1CC(=O)N(Cc2ccccc2)C1=O", "stereo": "stereo not given", "Pks13 thioesterase": -33.36, "TcHisRS": 5.946, "LiHisRS": 8.547}
{"compound": "O=C(c1ccsc1)N1C[C@H]2CN(Cc3cccc(F)c3)C(=O)[C@H]2C1", "Pks13 thioesterase": -3.223, "TcHisRS": 7.843, "LiHisRS": 17.14}
{"compound": "Cc1cnc(C(=O)N2C[C@@H]3[C@@H](C2)OCC(=O)N3CC2CCCC2)cn1", "Pks13 thioesterase": 33.32, "TcHisRS": -118.9, "LiHisRS": -316.7}
{"compound": "CC(=O)N1CCCCC12CCCN(Cc1ccco1)C2", "stereo": "stereo not given", "Pks13 thioesterase": -14.82, "TcHisRS": -9.709, "LiHisRS": 11.54}
{"compound": "CC(=O)c1ccc(NC(=O)NCc2cccc(N(C)C)n2)cc1C", "Pks13 thioesterase": -33.93, "TcHisRS": 19.61, "LiHisRS": 29.41}
{"compound": "O=C(C[C@@H]1COC[C@H]2CN(Cc3cccnc3)C[C@@H]12)N1CCOCC1", "Pks13 thioesterase": 7.413, "TcHisRS": 2.439, "LiHisRS": 15.38}
{"compound": "COCCCN1CCC(c2nc3c([nH]2)CC(C)(C)CNC3=O)C1", "stereo": "stereo not given", "Pks13 thioesterase": -26.76, "TcHisRS": 1.058, "LiHisRS": 15.15}
{"compound": "O=C1COc2ccc(S(=O)(=O)N3CCOCC3)c3c2N1CCC3", "Pks13 thioesterase": -27.43, "TcHisRS": 4.39, "LiHisRS": 0}
{"compound": "Cn1c(C2CCCN2C(=O)CN2CSCC2=O)nc2ccccc21", "stereo": "stereo not given", "Pks13 thioesterase": -16.72, "TcHisRS": 10.12, "LiHisRS": 26.88}
{"compound": "CC(C)(C)NS(=O)(=O)c1cc(NC(=O)C2CC2)ccc1F", "Pks13 thioesterase": -30.77, "TcHisRS": 8.38, "LiHisRS": -5.263}
{"compound": "NC(=O)N1CC(OCc2cccc3ccccc23)C1", "Pks13 thioesterase": -26.94, "TcHisRS": 5.882, "LiHisRS": 15.97}
{"compound": "COCCN1CCCC1c1nccnc1Nc1nccs1", "stereo": "stereo not given", "TcHisRS": 12.09, "LiHisRS": 15.94}
{"compound": "O=C(Cn1cnc2ccsc2c1=O)c1ccc2c(c1)OCCO2", "Pks13 thioesterase": -45.07, "TcHisRS": 3.867, "LiHisRS": 7.254}
{"compound": "Cc1oc(-c2cccc(F)c2F)nc1CN(CCO)C(C)C", "Pks13 thioesterase": -11.22, "TcHisRS": -1.98, "LiHisRS": 11.96}
{"compound": "Cc1cc(NC(=O)CCN(CC2CCOC2)C2CC2)no1", "stereo": "stereo not given", "Pks13 thioesterase": -12.72, "TcHisRS": -2.642, "LiHisRS": 28.38}
{"compound": "Cn1c(CN2CCC(OCc3cccnc3)CC2)cc2ccccc21", "Pks13 thioesterase": 11.88, "TcHisRS": 10.1, "LiHisRS": 16.39}
{"compound": "CO[C@H]1COC[C@@H]1NC(=O)C1(Oc2ccc(Cl)cc2)CCNCC1", "Pks13 thioesterase": -21.58, "TcHisRS": 1.657, "LiHisRS": 9.859}
{"compound": "O=C(C1CCCN(C2CCOCC2)C1)N1CCc2ncccc2C1", "stereo": "stereo not given", "Pks13 thioesterase": -6.217, "TcHisRS": 9, "LiHisRS": 28.57}
{"compound": "O=C(NCC1CC1)c1nc2c(o1)CN(CC1CC1)C2", "Pks13 thioesterase": -5.968, "TcHisRS": 4.908, "LiHisRS": 17.09}
{"compound": "CC1CN(C)CCN1C(=O)c1cnc2onc(CC(C)(C)C)c2c1", "stereo": "stereo not given", "Pks13 thioesterase": -19.7, "TcHisRS": 9.74, "LiHisRS": 9.677}
{"compound": "O=C(NCCNc1ncccn1)C1CCN(c2ncccn2)CC1", "Pks13 thioesterase": -17.33, "TcHisRS": -2.682, "LiHisRS": 15.38}
{"compound": "Cc1ccn(-c2ccc(N3CCCN(Cc4ccccc4)CC3)nn2)n1", "Pks13 thioesterase": 4.806, "TcHisRS": 2.463, "LiHisRS": 22.08}
{"compound": "Cc1ncc(CN2CCC(CNS(=O)(=O)C3CC3)C2)cn1", "stereo": "stereo not given", "Pks13 thioesterase": 8.906, "TcHisRS": 2.618, "LiHisRS": 15.05}
{"compound": "Cc1nc(NCc2nonc2C)cc(C(C)Cn2nc(C)c(C)c2C)n1", "stereo": "stereo not given", "Pks13 thioesterase": 4.69, "TcHisRS": 3.788, "LiHisRS": 7.246}
{"compound": "CCn1cc(CN2CCCC(COc3ccccc3F)C2)cn1", "stereo": "stereo not given", "Pks13 thioesterase": -12.38, "TcHisRS": 1.807, "LiHisRS": 13.19}
{"compound": "COCCNc1ccc(CNCc2cnc3nc(C)cc(C)n23)cc1", "Pks13 thioesterase": -10.68, "TcHisRS": 3.704, "LiHisRS": 33.33}
{"compound": "Cn1ccc(C(=O)NCc2ccccc2Cn2ccnc2)cc1=O", "Pks13 thioesterase": -47.6, "TcHisRS": 1.02, "LiHisRS": 20}
{"compound": "Cn1cc(Nc2cccc(C(=O)N(CC(N)=O)C3CCCC3)c2)cn1", "Pks13 thioesterase": -36.94, "TcHisRS": 0, "LiHisRS": 6.667}
{"compound": "COc1cccc(O[C@H]2CCN(c3nc(C)cc(C)n3)CC[C@@H]2O)c1", "Pks13 thioesterase": -5.433, "TcHisRS": 7.91, "LiHisRS": 6.993}
{"compound": "CC(C)c1nccn1C1CCCN(C(=O)c2cc(C(N)=O)cs2)C1", "stereo": "stereo not given", "Pks13 thioesterase": -18.79, "TcHisRS": 4.274, "LiHisRS": 6.838}